Source: US10139420B2, “Methods for treating vaso-occlusive crisis using non-modified annexin V” (ISNERM (Institut National de la Sante et de la Recherche …, priority 2011, dated 2018)
Entries after “also recorded” stand apart in the source; their conditions may differ.

System: SAD transgenic mice
Assay: Vaso-occlusive crises in mice: renal artery blood flow velocity by Echo-Doppler, cardiac output, renal histology
Type: in vivo
Details: after intravenous injection (TSP1 1 mg/kg; MP 300.10^3 MP/mouse)
Description: We characterized the induction of VOC in SAD transgenic mice (18, 19) according to our previously published method, in response to the intravenous administration of TSP1 (1 mg/kg), TSP1-derived peptides 4N1-1 or 4N1-2, or purified erythrocyte MP. Briefly, mice were anesthetized with isoflurane and monitored to prevent any cardiorespiratory depression. Mice were shaved and placed in the decubitus position on a heating blanket (38° C.). We used a Vivid 7 echograph (GE Medical Systems®, Horten, Norway) equipped with a 12-MHz linear transducer (12 L). The ultrasound probe was placed on the left side of the abdomen for examination of renal arteries, or in left lateral decubitus for cardiac output acquisition with transducer on the chest. Data were transferred on-line to an EchoPAC ultrasound image analysis workstation (GE Medical Systems®). […] A pulsed Doppler spectrum was recorded and peak systolic, end-diastolic and time-average mean BFV were measured in the renal artery, with Doppler beam angle correction. To calculate cardiac output, spatial flow profiles were analyzed in parasternal long-axis B-mode images of the pulmonary artery and BFV were measured as above. […] Circulating MP were quantified by FACS.
We evaluated the concept that TSP1 influences VOC during SCD in vivo. […]

Q: “TSP1: Human recombinant TSP1 produced by EMP-Genetech (Germany)” was tested. Which “cardiac output or heart rate” value did it give?
A: No changes; also recorded: no impact
